In the supplement of paper PMC11546906:
Where a name gives a salt, the structure may show the parent alone. Some of the results follow. Repeats in this data set agree poorly, so a single value says little.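 A screen tested FDA-approved drugs combined with one-eighth-MIC colistin against a clinical mcr-1-positive, multidrug-resistant E. coli isolate, measuring OD600 at 24 h. Controls were untreated bacteria (growth) and broth alone (blank). An OD600 under 0.2 marked a combination as active.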

test system: Escherichia coli 42 (mcr-1-positive clinical isolate); test: OD600 after 24 h growth with compound plus colistin (absorbance units (OD600)); higher = more bacterial growth (less inhibition); settings: first compound 25 µM; colistin concentration 0.5 ug/mL; incubation time 24 h; 37 °C

OD600, inactive:
CC=CC1=C(C(=O)O)N2C(=O)[C@@H](NC(=O)[C@H](N)c3ccc(O)cc3)[C@H]2SC1 [Cefprozil monohydrate] + CCC(C)CCCC(=O)N[C@@H](CCN)C(=O)N[C@H](C(=O)N[C@@H](CCN)C(=O)N[C@H]1CCNC(=O)[C@H]([C@@H](C)O)NC(=O)[C@H](CCN)NC(=O)[C@H](CCN)NC(=O)[C@H](CC(C)C)NC(=O)[C@@H](CC(C)C)NC(=O)[C@H](CCN)NC1=O)[C@@H](C)O [colistin] 1.1, CCn1cc(C(=O)O)c(=O)c2ccc(C)nc21 [Nalidixic acid sodium salt] + CCC(C)CCCC(=O)N[C@@H](CCN)C(=O)N[C@H](C(=O)N[C@@H](CCN)C(=O)N[C@H]1CCNC(=O)[C@H]([C@@H](C)O)NC(=O)[C@H](CCN)NC(=O)[C@H](CCN)NC(=O)[C@H](CC(C)C)NC(=O)[C@@H](CC(C)C)NC(=O)[C@H](CCN)NC1=O)[C@@H](C)O [colistin] 0.927, CC(c1cc2ccccc2s1)N(O)C(N)=O (stereo not drawn) [Zileuton] + CCC(C)CCCC(=O)N[C@@H](CCN)C(=O)N[C@H](C(=O)N[C@@H](CCN)C(=O)N[C@H]1CCNC(=O)[C@H]([C@@H](C)O)NC(=O)[C@H](CCN)NC(=O)[C@H](CCN)NC(=O)[C@H](CC(C)C)NC(=O)[C@@H](CC(C)C)NC(=O)[C@H](CCN)NC1=O)[C@@H](C)O [colistin] 0.875, CC(C)[C@H](N)C(=O)OCCOCn1cnc2c(=O)nc(N)[nH]c21 [Valacyclovir hydrochloride] + CCC(C)CCCC(=O)N[C@@H](CCN)C(=O)N[C@H](C(=O)N[C@@H](CCN)C(=O)N[C@H]1CCNC(=O)[C@H]([C@@H](C)O)NC(=O)[C@H](CCN)NC(=O)[C@H](CCN)NC(=O)[C@H](CC(C)C)NC(=O)[C@@H](CC(C)C)NC(=O)[C@H](CCN)NC1=O)[C@@H](C)O [colistin] 1.08, OCc1ccccc1 [Benzyl alcohol] + CCC(C)CCCC(=O)N[C@@H](CCN)C(=O)N[C@H](C(=O)N[C@@H](CCN)C(=O)N[C@H]1CCNC(=O)[C@H]([C@@H](C)O)NC(=O)[C@H](CCN)NC(=O)[C@H](CCN)NC(=O)[C@H](CC(C)C)NC(=O)[C@@H](CC(C)C)NC(=O)[C@H](CCN)NC1=O)[C@@H](C)O [colistin] 1, CN1CCC(=C2c3ccccc3CCn3c(C=O)cnc32)CC1 [Alcaftadine] + CCC(C)CCCC(=O)N[C@@H](CCN)C(=O)N[C@H](C(=O)N[C@@H](CCN)C(=O)N[C@H]1CCNC(=O)[C@H]([C@@H](C)O)NC(=O)[C@H](CCN)NC(=O)[C@H](CCN)NC(=O)[C@H](CC(C)C)NC(=O)[C@@H](CC(C)C)NC(=O)[C@H](CCN)NC1=O)[C@@H](C)O [colistin] 0.955, CC(=O)S[C@@H]1CC2=CC(=O)CC[C@]2(C)[C@H]2CC[C@@]3(C)[C@@H](CC[C@@]34CCC(=O)O4)[C@H]12 [Spironolactone] + CCC(C)CCCC(=O)N[C@@H](CCN)C(=O)N[C@H](C(=O)N[C@@H](CCN)C(=O)N[C@H]1CCNC(=O)[C@H]([C@@H](C)O)NC(=O)[C@H](CCN)NC(=O)[C@H](CCN)NC(=O)[C@H](CC(C)C)NC(=O)[C@@H](CC(C)C)NC(=O)[C@H](CCN)NC1=O)[C@@H](C)O [colistin] 0.899, CNC(=C[N+](=O)[O-])NCCSCc1csc(CN(C)C)n1 [Nizatidine] + CCC(C)CCCC(=O)N[C@@H](CCN)C(=O)N[C@H](C(=O)N[C@@H](CCN)C(=O)N[C@H]1CCNC(=O)[C@H]([C@@H](C)O)NC(=O)[C@H](CCN)NC(=O)[C@H](CCN)NC(=O)[C@H](CC(C)C)NC(=O)[C@@H](CC(C)C)NC(=O)[C@H](CCN)NC1=O)[C@@H](C)O [colistin] 0.874, CC[N+](CC)(CC)CCOc1cccc(OCC[N+](CC)(CC)CC)c1OCC[N+](CC)(CC)CC [Gallamine triethiodide] + CCC(C)CCCC(=O)N[C@@H](CCN)C(=O)N[C@H](C(=O)N[C@@H](CCN)C(=O)N[C@H]1CCNC(=O)[C@H]([C@@H](C)O)NC(=O)[C@H](CCN)NC(=O)[C@H](CCN)NC(=O)[C@H](CC(C)C)NC(=O)[C@@H](CC(C)C)NC(=O)[C@H](CCN)NC1=O)[C@@H](C)O [colistin] 1.07, C[C@H]1O[C@H](O[C@H]2[C@H](O)[C@@H](O)[C@@H](O[C@@H]([C@H](O)[C@@H](O)C=O)[C@H](O)CO)O[C@@H]2CO)[C@H](O)[C@@H](O)[C@@H]1N[C@H]1C=C(CO)[C@@H](O)[C@H](O)[C@H]1O [Acarbose] + CCC(C)CCCC(=O)N[C@@H](CCN)C(=O)N[C@H](C(=O)N[C@@H](CCN)C(=O)N[C@H]1CCNC(=O)[C@H]([C@@H](C)O)NC(=O)[C@H](CCN)NC(=O)[C@H](CCN)NC(=O)[C@H](CC(C)C)NC(=O)[C@@H](CC(C)C)NC(=O)[C@H](CCN)NC1=O)[C@@H](C)O [colistin] 1.07, CN(C)CCC(c1ccc(Cl)cc1)c1ccccn1 (stereo not drawn) [Chlorpheniramine maleate] + CCC(C)CCCC(=O)N[C@@H](CCN)C(=O)N[C@H](C(=O)N[C@@H](CCN)C(=O)N[C@H]1CCNC(=O)[C@H]([C@@H](C)O)NC(=O)[C@H](CCN)NC(=O)[C@H](CCN)NC(=O)[C@H](CC(C)C)NC(=O)[C@@H](CC(C)C)NC(=O)[C@H](CCN)NC1=O)[C@@H](C)O [colistin] 0.981, C[C@]12CCC(=O)C=C1[C@@H]1C[C@@H]1[C@H]1[C@@H]3[C@@H]4C[C@@H]4[C@@]4(CCC(=O)O4)[C@@]3(C)CC[C@@H]12 [Drospirenone] + CCC(C)CCCC(=O)N[C@@H](CCN)C(=O)N[C@H](C(=O)N[C@@H](CCN)C(=O)N[C@H]1CCNC(=O)[C@H]([C@@H](C)O)NC(=O)[C@H](CCN)NC(=O)[C@H](CCN)NC(=O)[C@H](CC(C)C)NC(=O)[C@@H](CC(C)C)NC(=O)[C@H](CCN)NC1=O)[C@@H](C)O [colistin] 1.1, COCCc1ccc(OCC(O)CNC(C)C)cc1 (stereo not drawn) [Metoprolol tartrate] + CCC(C)CCCC(=O)N[C@@H](CCN)C(=O)N[C@H](C(=O)N[C@@H](CCN)C(=O)N[C@H]1CCNC(=O)[C@H]([C@@H](C)O)NC(=O)[C@H](CCN)NC(=O)[C@H](CCN)NC(=O)[C@H](CC(C)C)NC(=O)[C@@H](CC(C)C)NC(=O)[C@H](CCN)NC1=O)[C@@H](C)O [colistin] 0.976, CCOC(=O)[C@H](CCc1ccccc1)N[C@@H](C)C(=O)N1Cc2ccccc2C[C@H]1C(=O)O [Quinapril hydrochloride] + CCC(C)CCCC(=O)N[C@@H](CCN)C(=O)N[C@H](C(=O)N[C@@H](CCN)C(=O)N[C@H]1CCNC(=O)[C@H]([C@@H](C)O)NC(=O)[C@H](CCN)NC(=O)[C@H](CCN)NC(=O)[C@H](CC(C)C)NC(=O)[C@@H](CC(C)C)NC(=O)[C@H](CCN)NC1=O)[C@@H](C)O [colistin] 1.06, O=C1CN(/N=C/c2ccc([N+](=O)[O-])o2)C(=O)N1 [Nitrofurantoin] + CCC(C)CCCC(=O)N[C@@H](CCN)C(=O)N[C@H](C(=O)N[C@@H](CCN)C(=O)N[C@H]1CCNC(=O)[C@H]([C@@H](C)O)NC(=O)[C@H](CCN)NC(=O)[C@H](CCN)NC(=O)[C@H](CC(C)C)NC(=O)[C@@H](CC(C)C)NC(=O)[C@H](CCN)NC1=O)[C@@H](C)O [colistin] 0.939, CCS(=O)(=O)CCn1c([N+](=O)[O-])cnc1C [Tinidazole] + CCC(C)CCCC(=O)N[C@@H](CCN)C(=O)N[C@H](C(=O)N[C@@H](CCN)C(=O)N[C@H]1CCNC(=O)[C@H]([C@@H](C)O)NC(=O)[C@H](CCN)NC(=O)[C@H](CCN)NC(=O)[C@H](CC(C)C)NC(=O)[C@@H](CC(C)C)NC(=O)[C@H](CCN)NC1=O)[C@@H](C)O [colistin] 1.1, C[N+](C)(C)CC(=O)O [Betaine chloride] + CCC(C)CCCC(=O)N[C@@H](CCN)C(=O)N[C@H](C(=O)N[C@@H](CCN)C(=O)N[C@H]1CCNC(=O)[C@H]([C@@H](C)O)NC(=O)[C@H](CCN)NC(=O)[C@H](CCN)NC(=O)[C@H](CC(C)C)NC(=O)[C@@H](CC(C)C)NC(=O)[C@H](CCN)NC1=O)[C@@H](C)O [colistin] 0.821, O=[Si]=O [Sodium montmorillonite] + CCC(C)CCCC(=O)N[C@@H](CCN)C(=O)N[C@H](C(=O)N[C@@H](CCN)C(=O)N[C@H]1CCNC(=O)[C@H]([C@@H](C)O)NC(=O)[C@H](CCN)NC(=O)[C@H](CCN)NC(=O)[C@H](CC(C)C)NC(=O)[C@@H](CC(C)C)NC(=O)[C@H](CCN)NC1=O)[C@@H](C)O [colistin] 1.07
